Data source: PubChem BioAssay AID1671195 (Yale University, 2021)
Purpose: 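Regulators of LDL receptor activity judged by labelled LDL uptake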 (primary screen). System: human Huh7 hepatoma cells. Reagent: siRNA pool against human genes, 18 nM. Timing: about 2 to 2.5 days of knockdown, then 8 h LDL uptake. Challenge: DiI-labelled LDL at 30 µg/ml for 8 h, in lipoprotein-deficient serum medium. Measurement: 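Per-cell DiI-LDL intensity by automated imaging; well means scaled to the plate median and given as a robust z-score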. Direction: robust z-score: higher = more LDL uptake after knockdown. Active means: 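a gene counts as active if at least two replicate z-scores exceed ±2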.
In all, the deposit lists about 22,000 reagents; this is an unselected part. Over the whole deposit, about 1,510 (6.9%) are marked active. 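Active includes knockdowns raising or lowering LDL uptake; positive z-scores mean more uptake, negative mean less.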

| gene knocked down | robust z-score, replicate 1 | robust z-score, replicate 2 | robust z-score, replicate 3 | activity call |
| --- | --- | --- | --- | --- |
| ADAMTS12 | 0.541 | 0.173 | 1.31 | inactive |
| CAPN7 | 0.263 | 0.988 | 0.905 | inactive |
| RNF181 | 1.18 | 0.421 | 1.1 | inactive |
| APOBR | 1.08 | 0.311 | 1 | inactive |
| ZBED10P | -1.85 | -1.37 | -1.34 | inactive |
| NLRP14 | -0.671 | -0.626 | -0.787 | inactive |
| PRIMPOL | 1.61 | 1.96 | 1.57 | inactive |
| IL6ST-DT | 0.695 | 0.445 | 0.922 | inactive |
| ALX3 | -0.109 | -0.72 | -0.104 | inactive |
| LOC388278 (retired record) | 0.254 | 0.147 | -0.211 | inactive |
| TTC24 | 4.9 | 4.84 | 4.55 | active |
| BCAR1 | -2.52 | -2.12 | -1.85 | active |
| RPL39 | -0.201 | 0.143 | 0.268 | inactive |
| DRICH1 | -2.25 | -1.14 | -0.104 | inactive |
| B4GALNT2 | -0.815 | -1.52 | 0.765 | inactive |
| LOC441030 (retired record) | 1.03 | 0.995 | 1.37 | inactive |
| OR14C36 | 2.99 | 2.37 | 0.253 | active |
| ZNF497 | -2.19 | -2.16 | -2.2 | active |
| TCEAL6 | 1.95 | 2.04 | 2.11 | active |
| LOC441848 (retired record) | -0.106 | 0.674 | 0.291 | inactive |
| SCGB1C1 | -0.128 | -0.12 | -0.595 | inactive |
| C16orf78 | -1.93 | -0.554 | -0.862 | inactive |
| PRX | 0.366 | 0.436 | -0.0296 | inactive |
| POLR1B | 0.762 | 0.737 | 0.474 | inactive |
| AIF1 | -0.388 | -0.222 | -0.409 | inactive |
| TH | -0.315 | -0.718 | -0.678 | inactive |
| TMEM59L | 1.27 | -0.207 | 1.42 | inactive |
| PMF1 | -1.23 | -2.07 | -1.07 | inactive |
| TMEM202 | 1.04 | 1.52 | 1.5 | inactive |
| CGA | -1.15 | -0.777 | -0.469 | inactive |
| MCM9 | -0.337 | -0.282 | -0.484 | inactive |
| HSH2D | -1.46 | -1.95 | -2 | inactive |
| TRIM65 | -0.643 | 0.0467 | 0.349 | inactive |
| OR11A1 | -0.38 | -0.661 | 0.312 | inactive |
| MECR | 1.07 | 1.49 | 1.2 | inactive |
| DPYSL5 | -0.00151 | -0.74 | -0.0878 | inactive |
| ITIH5 | 0.568 | 0.177 | 0.396 | inactive |
| IGFBPL1 | -0.28 | -0.697 | -0.682 | inactive |
| ACTC1 | -0.496 | -0.417 | -0.565 | inactive |
| ARL5B | -0.758 | -0.162 | -0.599 | inactive |
| LOC441927 (retired record) | -0.545 | -0.106 | -0.562 | inactive |
| FADD | 0.0723 | 0.491 | -0.481 | inactive |
| LOC389628 (retired record) | -1.6 | -1.79 | -1.85 | inactive |
| TADA2B | 0.54 | -0.233 | -0.482 | inactive |
| MED9 | 1.61 | -0.359 | 0.33 | inactive |
| MARK4 | 0.135 | 0.0858 | 0.258 | inactive |
| LINC02591 | 0.853 | -0.226 | -0.236 | inactive |
| LOC221344 (retired record) | -0.0786 | -0.376 | -0.691 | inactive |
| RPS17P10 | 1.16 | 1.04 | 0.962 | inactive |
| CPB1 | 2.58 | 2.23 | 2.44 | active |
| PRNT | -0.447 | -0.973 | 0.459 | inactive |
| PDYN | 4.22 | 2.32 | 3.14 | active |
| TRMT5 | -0.767 | -0.771 | 2.05 | inactive |
| WAC | -1.15 | -1.85 | -1.04 | inactive |
| CCT7P1 | 0.441 | 0.445 | 0.763 | inactive |
| RPL22P13 | 0.0326 | -0.124 | 0.297 | inactive |
| ABCG1 | 3.18 | 3.25 | 1.77 | active |
| EIF3C | -1.76 | -1.56 | -1.14 | inactive |
| FAM161A | -0.0917 | -0.148 | -0.249 | inactive |
| IFNA21 | 0.0902 | 0.145 | 0.422 | inactive |
| TRAPPC6A | -0.163 | 0.0788 | 0.332 | inactive |
| HMGB3 | -0.8 | -1.02 | -1.25 | inactive |
| MAP3K7 | -0.212 | -0.0852 | 0.196 | inactive |
| SLITRK1 | -0.285 | -1.73 | -0.783 | inactive |
| PEBP1 | 0.439 | -0.0623 | 1.01 | inactive |
| SGSM2 | -0.0952 | 0.458 | -1.4 | inactive |
| ASL | 0.477 | -0.582 | 0.693 | inactive |
| PTPRE | 0.491 | 0.343 | 0.922 | inactive |
| REG3G | -0.279 | -1.45 | -0.898 | inactive |
| MYO1G | 0.672 | 1.2 | 0.683 | inactive |
| RPL18AP16 | -1.04 | -0.978 | -1.04 | inactive |
| PDHA1 | 1.71 | 2.27 | 1.02 | inactive |
| TTYH3 | 0.114 | 0.505 | 1.26 | inactive |
| TTC9 | -0.149 | -0.939 | 0.349 | inactive |
| ZNF134 | 0.324 | 0.76 | 0.865 | inactive |
| RPLP1P5 | 0.00376 | -0.834 | -0.617 | inactive |
| NEB | 0.267 | -0.273 | 0.121 | inactive |
| FEN1 | -0.71 | -0.644 | -0.751 | inactive |
| CIMIP5 | 0.795 | 0.768 | 0.274 | inactive |
| SFT2D2 | -1.63 | -1.49 | -1.63 | inactive |
| RPS6KA2 | -0.246 | 0.0143 | -0.361 | inactive |
| EIF3B | -1.76 | -1.07 | -1.47 | inactive |
| SPRR2A | -0.626 | 1.75 | 0.135 | inactive |
| MRFAP1 | 0.1 | -0.139 | -0.0461 | inactive |
| THAP9 | -0.114 | 0.433 | 0.877 | inactive |
| CEP44 | -0.301 | -0.602 | -0.333 | inactive |
| SMIM34 | -0.32 | -0.413 | -0.473 | inactive |

Targets above whose gene name starts with R or r:
| gene knocked down | robust z-score, replicate 1 | robust z-score, replicate 2 | robust z-score, replicate 3 | activity call |
| --- | --- | --- | --- | --- |
| RNF181 | 1.18 | 0.421 | 1.1 | inactive |
| RPL39 | -0.201 | 0.143 | 0.268 | inactive |
| RPS17P10 | 1.16 | 1.04 | 0.962 | inactive |
| RPL22P13 | 0.0326 | -0.124 | 0.297 | inactive |
| REG3G | -0.279 | -1.45 | -0.898 | inactive |
| RPL18AP16 | -1.04 | -0.978 | -1.04 | inactive |
| RPLP1P5 | 0.00376 | -0.834 | -0.617 | inactive |
| RPS6KA2 | -0.246 | 0.0143 | -0.361 | inactive |
